{"source": "paper PMC6346578", "target": "T1, SACE_5754 (TetR family regulator) (UniProt A4FLL4)", "T1 sequence (looked up)": "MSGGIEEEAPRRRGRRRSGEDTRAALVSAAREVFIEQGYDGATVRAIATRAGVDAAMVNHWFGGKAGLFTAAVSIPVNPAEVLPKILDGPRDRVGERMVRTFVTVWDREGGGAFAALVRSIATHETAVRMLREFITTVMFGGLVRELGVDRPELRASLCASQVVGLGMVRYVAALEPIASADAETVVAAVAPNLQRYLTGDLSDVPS", "experiment": "EMSA", "settings": "EMSA: 10 mM Tris pH 7.5, 5 mM MgCl2, 60 mM KCl, 10 mM DTT, 10% glycerol, 30 C 10 min, 20 uL; 6% native PAGE, 1x TAE; recombinant protein; residues 1-207; protein details: C-terminal His6 (pET22b); probe letters rebuilt from the primers and the genome", "note": "Negatives hold for the conditions tested. Protein sequences can lack the tags named with them.", "data": [{"sequence": "GATACGGCCGCCACGAGCAGCGGAACTACCAACAACAGCGGCGCGATGCGGATGACCAGCCGTTTCACGCGCTCACCCCCAGTCATGCAAACAATTTTCAGCTTGATCAACCTAACACCGGCGCGCGGTGCCGACACGGACTTTTCGGACGCCGCTCCTCGGCCGGACATCGCAGCGGAAAGCGCGATCCACAATGGACGCAACGGGAGTCGTAAACCGGCTGATGTGATCCAGGACACAAAGCTCGACGGGTTGGCCGCGGCGCCGCGCTCGTTATGATCTTCCTTGTGGGACTAGGCAAATGCCGCATATGCGGGAACCATGACCTCGAGTCCGTGCTGC (double strand) [PeryBI-BIII]", "values": [{"measurement": "binding result", "value": "no binding"}]}]}
